## Library screen at single concentrations

Mtb cholesterol medium: 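Whole-cell growth test on Mycobacterium tuberculosis, read after 4 days in a medium based on cholesterol and the lipid DPPC; the read-out is not stated. Concentration: 50 µM. Direction is inferred from retests: higher values go with more growth inhibition. Of about 69,000 compounds tested this way, about 370 (0.54%) reached 50% or more in at least one test.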
Mtb glucose medium: 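Growth of Mycobacterium tuberculosis over 3 days (7H9 medium with glucose and tyloxapol); the read-out is not stated. Compounds at 50 µM. Direction is inferred from retests: higher values go with more growth inhibition. Size under these conditions: about 69,000 compounds, about 760 of them at 50% or above in at least one test.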

Each number is a percent effect as filed.
The record does not define 0% and 100%; most values in the screen are far below 50% and negative numbers occur (in some assays of this library far below -100).
Compounds were drawn at random from those tested, without regard to their results.
Two or more numbers in one place are separate tests of the same structure; such repeats can differ widely.

Cc1cc(C)n(C2CCCN(C(=O)c3ccc(F)cc3F)C2)n1 (stereo not shown) gave Mtb cholesterol medium: 4.153% & -1.559%; Mtb glucose medium: -9.287%.
O=C(c1cc2c([nH]c1=O)CCC2)N1CCCC1c1ccc(F)cc1 (stereo not shown) gave Mtb cholesterol medium: 4.406%; Mtb glucose medium: 16.45%.
COC(=O)CNC(=O)c1nc(-c2ccccc2OC)c2cnccn12 gave Mtb cholesterol medium: 14%; Mtb glucose medium: 35.48%.
CCS(=O)(=O)N1CCc2ccc(NC(=O)Nc3ccccc3)cc21 gave Mtb cholesterol medium: -2.753%; Mtb glucose medium: 8.208%.
O=C(c1cccc2ncccc12)N1CCCN(c2cccnn2)CC1 gave Mtb cholesterol medium: 6.181%; Mtb glucose medium: 21.64%.
O=C(Cc1ccccc1)N1CCN(CC(O)c2ccc(F)cc2)CC1 (stereo not shown) gave Mtb cholesterol medium: -2.056%; Mtb glucose medium: -48.07% & 3.854%.
CC(NCC1(N(C)C)CCOCC1)c1ccc(S(C)(=O)=O)cc1 (stereo not shown) gave Mtb cholesterol medium: 19.59%; Mtb glucose medium: 2.968% & -22.14%.
Cc1cccc(OCC(=O)N(Cc2ccncc2)C2CC2)c1 gave Mtb cholesterol medium: -7.873%; Mtb glucose medium: -21.58%.
CCOc1ccc(C#N)cc1NCC(=O)OC gave Mtb cholesterol medium: -3.196%; Mtb glucose medium: 7.043% & -3.758%.
O=C(O)C(F)(F)F.O=C1N(CC2CC2)CCC12CCN(Cc1ccoc1)CC2 gave Mtb cholesterol medium: -7.959% & -12.52%; Mtb glucose medium: -24.12%.
Cc1ccc(NS(=O)(=O)c2cc3c(c(C(=O)O)c2)OCCO3)cc1F gave Mtb cholesterol medium: 3.951%; Mtb glucose medium: -26.39%.
CCn1cc(NC(=O)C2CCN(Cc3ccccc3)CC2)cn1 gave Mtb cholesterol medium: -12.34%; Mtb glucose medium: -21.76%.
COCC(=O)N(Cc1cccnc1)CC1CCCN(C2CCCCC2)C1 (stereo not shown) gave Mtb cholesterol medium: 18.75%; Mtb glucose medium: 19.59%.
CC(=O)Nc1ccc(-n2cncn2)c(F)c1 gave Mtb cholesterol medium: 7.679%; Mtb glucose medium: 29.51%.
Cc1ccc(-c2cc(CNC(=O)N3CCC(O)CC3)on2)cc1 gave Mtb cholesterol medium: 12.09%; Mtb glucose medium: -43.09% & 1.878%.
CN(CCOc1ccc(Br)cc1)Cc1cscn1 gave Mtb cholesterol medium: 8.372%; Mtb glucose medium: 12.76% & -0.04469%.
COCCn1cc(C(=O)N2CCCC2c2cc(C)on2)c2ccccc21 (stereo not shown) gave Mtb cholesterol medium: -53.8%; Mtb glucose medium: -18.08%.
O=C(c1cc[nH]n1)N1CCCC(c2cccc(-n3ccnc3)n2)C1 (stereo not shown) gave Mtb cholesterol medium: -11.55%; Mtb glucose medium: 85.39%.
O=C(O)c1cc(-c2ccc3c(c2)OCO3)cc(S(=O)(=O)NC2CC2)c1 gave Mtb cholesterol medium: -1.898% & 10.05%; Mtb glucose medium: -0.18%.
Cl.Cl.O=C(NC[C@H]1OC[C@@H](NC2CCNCC2)[C@@H]1O)C1CCCC1 gave Mtb cholesterol medium: -31.77%; Mtb glucose medium: -38.14% & -3.074%.
CN(C)c1ncc(-c2ccncc2)c(CCNC(=O)C2CC2)n1 gave Mtb cholesterol medium: 1.077% & -3.091%; Mtb glucose medium: -0.79%.
[H][C@@]12CCN(C(=O)c3ccncn3)C[C@@]1([H])O[C@H](C)C2 gave Mtb cholesterol medium: -10.05%; Mtb glucose medium: 11.49%.
CN1CCN(Cc2cn3c(n2)CN(C(=O)c2ccccn2)CC3)CC1.O=C(O)C(F)(F)F.O=C(O)C(F)(F)F.O=C(O)C(F)(F)F gave Mtb cholesterol medium: 15.48%; Mtb glucose medium: -4.954% & 21.42%.
Cc1cc(C(=O)N2CCC(c3nccn3Cc3ccncc3)CC2)no1 gave Mtb cholesterol medium: 7.345%; Mtb glucose medium: -1.96% & 6.749%.
[H][C@]12CN(CCN3CCCC3=O)CC[C@@]1(O)CCN(c1ncccn1)C2 gave Mtb cholesterol medium: -16.62%; Mtb glucose medium: 1.083%.
CCN1C(=O)CCCC12CCCN(C(=O)c1cc(C)oc1C)C2 (stereo not shown) gave Mtb cholesterol medium: -7.576%; Mtb glucose medium: 2.409%.
CCC(C#N)NC(=O)CCNC(=O)C(C)(C)C (stereo not shown) gave Mtb cholesterol medium: -7.236%; Mtb glucose medium: 19.12%.
Cc1ccc(OCC(O)CN2CCc3c(ncn3C3CC3)C2)cc1 (stereo not shown) gave Mtb cholesterol medium: 9.661%; Mtb glucose medium: -5.577%.
CNC(=O)c1nn(C)cc1NC(=O)C(C)n1ncc(Cl)c1C (stereo not shown) gave Mtb cholesterol medium: -18.62%; Mtb glucose medium: 9.669%.
Clc1ccc(C2(NCc3noc(C4CC4)n3)CCOCC2)cc1 gave Mtb cholesterol medium: -12.15%; Mtb glucose medium: 15.04%.
Cc1cnn(CCNCc2nc(COc3ccc(F)cc3)no2)c1 gave Mtb cholesterol medium: -6.774%; Mtb glucose medium: 18.11%.
Cc1n[nH]c(C2CN(C(=O)c3ccco3)CCO2)n1 (stereo not shown) gave Mtb cholesterol medium: 2.377%; Mtb glucose medium: 8.464% & -3.074%.
CC(C)(C)C(=O)Nc1cnn(-c2ccccc2S(C)(=O)=O)c1 gave Mtb cholesterol medium: 14.39%; Mtb glucose medium: 20.9% & 1.229%.
Cc1ccc2cc(C(=O)N3CCCC3Cn3cccn3)[nH]c2c1 (stereo not shown) gave Mtb cholesterol medium: 4.894%; Mtb glucose medium: 2.043%.
Cc1cc(C)c2nc(CN3CCCC(c4cc[nH]n4)C3)cc(O)c2c1 (stereo not shown) gave Mtb cholesterol medium: 4.363%; Mtb glucose medium: 2.575%.
CCc1ccc(C(=O)O)cc1S(=O)(=O)N(C)c1cccc(C#N)c1 gave Mtb cholesterol medium: -4.677% & -9.581%; Mtb glucose medium: -38.34% & -6.345%.
Cn1ncc2c(N3CCN(C(=O)c4ccsc4)CC3)ncnc21 gave Mtb cholesterol medium: 1.643%; Mtb glucose medium: -6.115% & -2.625%.
CC(C)c1nnc2n1CC(CNC/C=C/c1ccccc1)CC2 (stereo not shown) gave Mtb cholesterol medium: 19.52%; Mtb glucose medium: -1.526% & 8.298%.
O=C(CCN1CCCC1=O)Nc1cnn(-c2ccccc2Cl)c1 gave Mtb cholesterol medium: 1.854%; Mtb glucose medium: -33.43% & -1.044%.
Cc1cc(C)c2c(c1)C1(CC(=O)Nc3c1cnn3C(C)C)C(=O)N2 (stereo not shown) gave Mtb cholesterol medium: -4.848%; Mtb glucose medium: 5.784%.
COCCn1cc2c(n1)C(CNC(=O)c1cc(C)[nH]c1C)OCC2 (stereo not shown) gave Mtb cholesterol medium: 8.958%; Mtb glucose medium: 22.02%.
CCn1nc(C)c2nc(C(C)C)nc(N(C)Cc3ccco3)c21 gave Mtb cholesterol medium: 23.33%; Mtb glucose medium: 34.95%.
Cn1cnnc1C1CCCN(C(=O)NCc2ccccn2)C1 (stereo not shown) gave Mtb cholesterol medium: -42.26%; Mtb glucose medium: -43.76%.

Some entries from above, unchanged:

| compound | Mtb cholesterol medium | Mtb glucose medium |
|---|---|---|
| `Cn1cnnc1C1CCCN(C(=O)NCc2ccccn2)C1` (stereo not shown) | -42.26 | -43.76 |
| `CCN1C(=O)CCCC12CCCN(C(=O)c1cc(C)oc1C)C2` (stereo not shown) | -7.576 | 2.409 |
| `Cc1cc(C)c2nc(CN3CCCC(c4cc[nH]n4)C3)cc(O)c2c1` (stereo not shown) | 4.363 | 2.575 |
| `Cc1cc(C)n(C2CCCN(C(=O)c3ccc(F)cc3F)C2)n1` (stereo not shown) | 4.153 & -1.559 | -9.287 |
| `CNC(=O)c1nn(C)cc1NC(=O)C(C)n1ncc(Cl)c1C` (stereo not shown) | -18.62 | 9.669 |

Data taken from ChEMBL document CHEMBL3988442, “University of Dundee, Small-Polar-MMV Screening Library” (2021).